# Measured values published in PMC7642295.
# Sequences of proteins named here, by UniProt entry; tags and fusion partners are left off. A change or cut given only in a name is not applied to a line headed by its entry.
# UniProt Q9Y238: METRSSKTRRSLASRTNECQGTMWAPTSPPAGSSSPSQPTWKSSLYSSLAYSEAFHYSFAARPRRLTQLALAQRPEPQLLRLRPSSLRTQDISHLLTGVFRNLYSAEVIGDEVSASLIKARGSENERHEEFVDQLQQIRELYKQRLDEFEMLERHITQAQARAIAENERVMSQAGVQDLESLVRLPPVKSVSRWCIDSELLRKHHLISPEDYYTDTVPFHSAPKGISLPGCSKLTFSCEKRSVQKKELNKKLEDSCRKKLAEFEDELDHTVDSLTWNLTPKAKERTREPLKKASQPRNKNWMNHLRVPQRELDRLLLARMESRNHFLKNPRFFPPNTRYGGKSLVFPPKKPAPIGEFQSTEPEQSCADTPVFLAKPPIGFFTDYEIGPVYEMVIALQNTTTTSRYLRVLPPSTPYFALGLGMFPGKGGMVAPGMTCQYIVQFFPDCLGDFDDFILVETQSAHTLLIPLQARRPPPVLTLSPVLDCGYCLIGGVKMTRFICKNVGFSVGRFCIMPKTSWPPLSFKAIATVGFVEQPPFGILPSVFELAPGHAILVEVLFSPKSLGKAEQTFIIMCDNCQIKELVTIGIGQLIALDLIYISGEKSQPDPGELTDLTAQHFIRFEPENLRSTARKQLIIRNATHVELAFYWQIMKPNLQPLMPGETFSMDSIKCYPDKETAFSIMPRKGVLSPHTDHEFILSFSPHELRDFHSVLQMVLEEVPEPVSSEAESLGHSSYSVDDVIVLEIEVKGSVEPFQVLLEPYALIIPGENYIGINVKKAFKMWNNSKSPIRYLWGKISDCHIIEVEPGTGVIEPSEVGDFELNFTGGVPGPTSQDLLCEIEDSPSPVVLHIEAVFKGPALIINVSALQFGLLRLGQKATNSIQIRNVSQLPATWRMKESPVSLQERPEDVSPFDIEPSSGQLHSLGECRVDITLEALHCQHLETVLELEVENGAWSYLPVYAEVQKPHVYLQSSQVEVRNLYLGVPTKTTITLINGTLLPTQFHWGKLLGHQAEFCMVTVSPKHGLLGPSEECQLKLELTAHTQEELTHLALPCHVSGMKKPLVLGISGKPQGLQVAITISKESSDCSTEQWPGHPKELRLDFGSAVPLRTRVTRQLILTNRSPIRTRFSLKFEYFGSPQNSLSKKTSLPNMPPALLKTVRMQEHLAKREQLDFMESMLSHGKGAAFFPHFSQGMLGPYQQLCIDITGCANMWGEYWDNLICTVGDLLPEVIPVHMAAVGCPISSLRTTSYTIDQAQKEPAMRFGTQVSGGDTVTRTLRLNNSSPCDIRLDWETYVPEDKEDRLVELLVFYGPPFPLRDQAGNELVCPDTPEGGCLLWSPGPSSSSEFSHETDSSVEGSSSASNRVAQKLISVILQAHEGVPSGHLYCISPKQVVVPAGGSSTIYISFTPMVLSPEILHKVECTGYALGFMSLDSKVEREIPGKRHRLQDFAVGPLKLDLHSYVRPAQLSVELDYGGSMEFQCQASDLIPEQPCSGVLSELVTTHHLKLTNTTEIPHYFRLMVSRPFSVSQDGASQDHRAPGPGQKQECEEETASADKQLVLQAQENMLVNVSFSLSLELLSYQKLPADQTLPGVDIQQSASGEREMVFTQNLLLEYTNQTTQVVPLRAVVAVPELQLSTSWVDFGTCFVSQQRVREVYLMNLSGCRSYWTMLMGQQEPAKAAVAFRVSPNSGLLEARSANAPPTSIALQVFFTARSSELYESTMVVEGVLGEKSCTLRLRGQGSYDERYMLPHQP
# These are yes or no findings as the source states them, for the method shown. In cells and extracts the contact can be indirect. Some binding calls cover weakened binding; strength is not graded here.
# B1: T-complex protein 1 subunit beta isoform 2 (protein, UniProt P78371-2 1-488)
# chain: MDKILLSSGRDASLMVTNDGATILKNIGVDNPAAKVLVDMSRVQDDEVGDGTTSVTVLAAELLREAESLIAKKIHPQTIIAGWREATKAAREALLSSAVDHGSDEVKFRQDLMNIAGTTLSSKLLTHHKDHFTKLAVEAVLRLKGSGNLEAIHIIKKLGGSLADSYLDEGFLLDKKIGVNQPKRIENAKILIANTGMDTDKIKIFGSRVRVDSTAKVAEIEHAEKEKMKEKVERILKHGINCFINRQLIYNYPEQLFGAAGVMAIEHADFAGVERLALVTGGEIASTFDHPELVKLGSCKLIEEVMIGEDKLIHFSGVALGEACTIVLRGATQQILDEAERSLHDALCVLAQTVKDSRTVYGGGCSEMLMAHAVTQLANRTPGKEAVAMESYAKALRMLPTIIADNAGYDSADLVAQLRAAHSEGNTTAGLDMREGTIGDMAILGITESFQVKRQVLLSAAEAAEVILRVDNIIKAAPRKRVPDHHPC
# B2: T-complex protein 1 subunit gamma isoform c (protein, UniProt P49368-2 1-507)
# chain: MMGHRPVLVLSQNTKRESGRKVQSGNINAAKIQVQHPAAKSMIEISRTQDEEVGDGTTSVIILAGEMLSVAEHFLEQQMHPTVVISAYRKALDDMISTLKKISIPVDISDSDMMLNIINSSITTKAISRWSSLACNIALDAVKMVQFEENGRKEIDIKKYARVEKIPGGIIEDSCVLRGVMINKDVTHPRMRRYIKNPRIVLLDSSLEYKKGESQTDIEITREEDFTRILQMEEEYIQQLCEDIIQLKPDVVITEKGISDLAQHYLMRANITAIRRVRKTDNNRIARACGARIVSRPEELREDDVGTGAGLLEIKKIGDEYFTFITDCKDPKACTILLRGASKEILSEVERNLQDAMQVCRNVLLDPQLVPGGGASEMAVAHALTEKSKAMTGVEQWPYRAVAQALEVIPRTLIQNCGASTIRLLTSLRAKHTQENCETWGVNGETGTLVDMKELGIWEPLAVKLQTYKTAVETAVLLLRIDDIVSGHKKKGDDQSRQGGAPDAGQE
# B3: BBS5 (protein, UniProt Q8N3I7 1-341)
# chain: MSVLDALWEDRDVRFDLSAQQMKTRPGEVLIDCLDSIEDTKGNNGDRGRLLVTNLRILWHSLALSRVNVSVGYNCILNITTRTANSKLRGQTEALYILTKCNSTRFEFIFTNLVPGSPRLFTSVMAVHRAYETSKMYRDFKLRSALIQNKQLRLLPQEHVYDKINGVWNLSSDQGNLGTFFITNVRIVWHANMNDSFNVSIPYLQIRSIKIRDSKFGLALVIESSQQSGGYVLGFKIDPVEKLQESVKEINSLHKVYSASPIFGVDYEMEEKPQPLEALTVEQIQDDVEIDSDGHTDAFVAYFADGNKQQDREPVFSEELGLAIEKLKDGFTLQGLWEVMS
# B4: BBS6 (protein, UniProt Q9NPJ1 1-570)
# chain: MSRLEAKKPSLCKSEPLTTERVRTTLSVLKRIVTSCYGPSGRLKQLHNGFGGYVCTTSQSSALLSHLLVTHPILKILTASIQNHVSSFSDCGLFTAILCCNLIENVQRLGLTPTTVIRLNKHLLSLCISYLKSETCGCRIPVDFSSTQILLCLVRSILTSKPACMLTRKETEHVSALILRAFLLTIPENAEGHIILGKSLIVPLKGQRVIDSTVLPGILIEMSEVQLMRLLPIKKSTALKVALFCTTLSGDTSDTGEGTVVVSYGVSLENAVLDQLLNLGRQLISDHVDLVLCQKVIHPSLKQFLNMHRIIAIDRIGVTLMEPLTKMTGTQPIGSLGSICPNSYGSVKDVCTAKFGSKHFFHLIPNEATICSLLLCNRNDTAWDELKLTCQTALHVLQLTLKEPWALLGGGCTETHLAAYIRHKTHNDPESILKDDECTQTELQLIAEAFCSALESVVGSLEHDGGEILTDMKYGHLWSVQADSPCVANWPDLLSQCGCGLYNSQEELNWSFLRSTRRPFVPQSCLPHEAVGSASNLTLDCLTAKLSGLQVAVETANLILDLSYVIEDKN
# B5: T-complex protein 1 subunit delta isoform a (protein, UniProt P50991-1 1-539)
# chain: MPENVAPRSGATAGAAGGRGKGAYQDRDKPAQIRFSNISAAKAVADAIRTSLGPKGMDKMIQDGKGDVTITNDGATILKQMQVLHPAARMLVELSKAQDIEAGDGTTSVVIIAGSLLDSCTKLLQKGIHPTIISESFQKALEKGIEILTDMSRPVELSDRETLLNSATTSLNSKVVSQYSSLLSPMSVNAVMKVIDPATATSVDLRDIKIVKKLGGTIDDCELVEGLVLTQKVSNSGITRVEKAKIGLIQFCLSAPKTDMDNQIVVSDYAQMDRVLREERAYILNLVKQIKKTGCNVLLIQKSILRDALSDLALHFLNKMKIMVIKDIEREDIEFICKTIGTKPVAHIDQFTADMLGSAELAEEVNLNGSGKLLKITGCASPGKTVTIVVRGSNKLVIEEAERSIHDALCVIRCLVKKRALIAGGGAPEIELALRLTEYSRTLSGMESYCVRAFADAMEVIPSTLAENAGLNPISTVTELRNRHAQGEKTAGINVRKGGISNILEELVVQPLLVSVSALTLATETVRSILKIDDVVNTR
# B6: BBS2 (protein, UniProt Q9BXC9 1-721)
# chain: MLLPVFTLKLRHKISPRMVAIGRYDGTHPCLAAATQTGKVFIHNPHTRNQHVSASRVFQSPLESDVSLLSINQAVSCLTAGVLNPELGYDALLVGTQTNLLAYDVYNNSDLFYREVADGANAIVLGTLGDISSPLAIIGGNCALQGFNHEGSDLFWTVTGDNVNSLALCDFDGDGKKELLVGSEDFDIRVFKEDEIVAEMTETEIVTSLCPMYGSRFGYALSNGTVGVYDKTSRYWRIKSKNHAMSIHAFDLNSDGVNELITGWSNGKVDARSDRTGEVIFKDNFSSAIAGVVEGDYRMDGHIQLICCSVDGEIRGYLPGTAEMRGNLMDTSAEQDLIRELSQKKQNLLLELRNYEENAKAELASPLNEADGHRGIIPANTRLHTTLSVSLGNETQTAHTELRISTSNDTIIRAVLIFAEGIFTGESHVVHPSIHNLSSSICIPIVPPKDVPVDLHLKAFVGYRSSTQFHVFESTRQLPRFSMYALTSLDPASEPISYVNFTIAERAQRVVVWLGQNFLLPEDTHIQNAPFQVCFTSLRNGGHLHIKIKLSGEITINTDDIDLAGDIIQSMASFFAIEDLQVEADFPVYFEELRKVLVKVDEYHSVHQKLSADMADHSNLIRSLLVGAEDARLMRDMKTMKSRYMELYDLNRDLLNGYKIRCNNHTELLGNLKAVNQAIQRAGRLRVGKPKNQVITACRDAIRSNNINTLFKIMRVGTASS
# B7: BBS4 (protein, UniProt Q96RK4 1-519)
# chain: MAEERVATRTQFPVSTESQKPRQKKAPEFPILEKQNWLIHLHYIRKDYEACKAVIKEQLQETQGLCEYAIYVQALIFRLEGNIQESLELFQTCAVLSPQSADNLKQVARSLFLLGKHKAAIEVYNEAAKLNQKDWEISHNLGVCYIYLKQFNKAQDQLHNALNLNRHDLTYIMLGKIHLLEGDLDKAIEVYKKAVEFSPENTELLTTLGLLYLQLGIYQKAFEHLGNALTYDPTNYKAILAAGSMMQTHGDFDVALTKYRVVACAVPESPPLWNNIGMCFFGKKKYVAAISCLKRANYLAPFDWKILYNLGLVHLTMQQYASAFHFLSAAINFQPKMGELYMLLAVALTNLEDIENAKRAYAEAVHLDKCNPLVNLNYAVLLYNQGEKKNALAQYQEMEKKVSLLKDNSSLEFDSEMVEMAQKLGAALQVGEALVWTKPVKDPKSKHQTTSTSKPASFQQPLGSNQALGQAMSSAAAYRTLPSGAGGTSQFTKPPSLPLEPEPAVESSPTETSEQIREK
# Molecular target: 3 × FLAG-tagged human DLEC1 (deleted in lung and esophageal cancer 1) (human) (UniProt Q9Y238)
# Experiment: co-IP; 3 × FLAG-hDLEC1 or empty vector expressed in HEK293F; lysate incubated overnight with 1 µg anti-FLAG antibody and protein G-agarose beads at 4 °C; western blotting with antibodies to the endogenous partners
row,binding,Molecule
1,binds,T-complex protein 1 subunit epsilon isoform a (from UniProt P48643-1 1-541)
2,binds,B1
3,binds,B2
4,binds,B3
5,binds,B4
6,binds,B5
7,binds,B6
8,binds,B7
